The values that follow come from PMC6351033.

The chains behind the UniProt entries cited, without tags or fusion partners.
UniProt P26447: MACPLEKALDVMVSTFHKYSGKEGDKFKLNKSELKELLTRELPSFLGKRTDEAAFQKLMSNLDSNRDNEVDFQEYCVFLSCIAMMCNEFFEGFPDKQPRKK
UniProt P51681: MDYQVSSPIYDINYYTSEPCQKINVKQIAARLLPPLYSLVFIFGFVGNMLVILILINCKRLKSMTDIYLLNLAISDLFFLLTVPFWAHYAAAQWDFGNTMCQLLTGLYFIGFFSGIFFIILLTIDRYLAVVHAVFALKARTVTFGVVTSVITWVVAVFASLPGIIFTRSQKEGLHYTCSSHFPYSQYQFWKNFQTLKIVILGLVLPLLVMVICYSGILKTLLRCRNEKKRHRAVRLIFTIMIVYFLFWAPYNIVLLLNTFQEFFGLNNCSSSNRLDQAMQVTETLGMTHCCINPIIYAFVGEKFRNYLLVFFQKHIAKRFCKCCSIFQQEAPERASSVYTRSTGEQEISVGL
UniProt P49682: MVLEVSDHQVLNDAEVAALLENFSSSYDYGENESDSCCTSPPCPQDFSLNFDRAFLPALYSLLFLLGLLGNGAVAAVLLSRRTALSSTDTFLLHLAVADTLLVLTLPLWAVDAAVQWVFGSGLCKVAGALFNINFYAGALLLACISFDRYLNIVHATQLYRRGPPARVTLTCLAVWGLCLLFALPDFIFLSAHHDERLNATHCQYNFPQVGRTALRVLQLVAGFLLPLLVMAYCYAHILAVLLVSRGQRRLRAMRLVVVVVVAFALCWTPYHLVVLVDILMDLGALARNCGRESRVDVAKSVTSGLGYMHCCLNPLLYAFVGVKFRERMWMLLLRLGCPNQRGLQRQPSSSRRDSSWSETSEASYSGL

These are yes or no findings as the source states them, for the method shown. In cells and extracts the contact can be indirect. Some entries that bind do so weakly or less than the wild type.

For this assay, the target named is Mts1 (S100A4), recombinant (UniProt P26447). In words: pull-down; affinity chromatography: Mts1 conjugated to BrCN-Sepharose column; supernatant of PBMC solubilised in 50 mM Tris pH 7.5, 1% Triton X-100 (diluted 10 times) applied; bound proteins by 12% SDS-PAGE and Western blot with antibodies to CCR5 and CXCR3; only the target purified. (In general: Immunoblotting shows a protein as a band on a membrane.)

As for “CCR5 chemotactic receptor (from UniProt P51681 1-352)”, the binding entry was “binds”. As to “CXCR3 chemotactic receptor (from UniProt P49682 1-368)”, the binding result is on record as “binds”.
